Laboratory results reported in article PMC12343779.
No constants are given. Whether binding was seen depends on the method and setting. In cells and extracts the contact can be indirect. Here binding means that the protein was enriched with, or labelled near, the bait; the list need not be complete.

Protein sequences, listed by entry. Tags and fused reporters are not part of them. Residues count along the entry.
UniProt Q63722, residues 34-1219: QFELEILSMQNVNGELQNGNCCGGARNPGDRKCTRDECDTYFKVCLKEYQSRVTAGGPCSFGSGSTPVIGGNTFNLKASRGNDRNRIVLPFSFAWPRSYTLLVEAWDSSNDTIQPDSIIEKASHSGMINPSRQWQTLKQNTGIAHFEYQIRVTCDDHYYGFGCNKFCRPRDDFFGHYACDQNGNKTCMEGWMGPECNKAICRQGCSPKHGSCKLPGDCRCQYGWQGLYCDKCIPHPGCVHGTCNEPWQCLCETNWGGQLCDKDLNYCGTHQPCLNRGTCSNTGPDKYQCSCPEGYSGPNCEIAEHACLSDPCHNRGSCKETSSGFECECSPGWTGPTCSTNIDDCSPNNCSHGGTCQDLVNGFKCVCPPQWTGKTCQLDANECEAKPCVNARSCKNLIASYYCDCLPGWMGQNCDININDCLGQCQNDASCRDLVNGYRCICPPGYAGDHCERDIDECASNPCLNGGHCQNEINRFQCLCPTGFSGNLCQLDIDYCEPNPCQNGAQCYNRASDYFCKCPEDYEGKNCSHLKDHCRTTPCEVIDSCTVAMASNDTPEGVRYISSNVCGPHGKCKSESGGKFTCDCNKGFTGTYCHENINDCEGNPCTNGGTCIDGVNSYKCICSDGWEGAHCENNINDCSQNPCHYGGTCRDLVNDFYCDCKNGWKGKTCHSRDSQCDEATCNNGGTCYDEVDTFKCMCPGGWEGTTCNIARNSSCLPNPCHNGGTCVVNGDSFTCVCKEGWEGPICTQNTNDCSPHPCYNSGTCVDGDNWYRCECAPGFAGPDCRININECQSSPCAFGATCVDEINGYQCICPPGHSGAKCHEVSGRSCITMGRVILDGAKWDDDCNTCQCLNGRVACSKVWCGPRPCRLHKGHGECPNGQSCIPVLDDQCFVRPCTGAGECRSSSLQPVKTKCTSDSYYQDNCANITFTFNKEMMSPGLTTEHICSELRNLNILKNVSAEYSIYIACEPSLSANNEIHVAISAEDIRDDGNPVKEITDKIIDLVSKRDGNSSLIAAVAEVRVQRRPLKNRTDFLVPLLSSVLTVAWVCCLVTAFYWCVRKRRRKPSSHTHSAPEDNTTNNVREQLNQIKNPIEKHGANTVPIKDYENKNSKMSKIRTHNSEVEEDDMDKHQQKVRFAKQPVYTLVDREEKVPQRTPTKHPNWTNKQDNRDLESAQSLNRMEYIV
UniProt G3V7W1: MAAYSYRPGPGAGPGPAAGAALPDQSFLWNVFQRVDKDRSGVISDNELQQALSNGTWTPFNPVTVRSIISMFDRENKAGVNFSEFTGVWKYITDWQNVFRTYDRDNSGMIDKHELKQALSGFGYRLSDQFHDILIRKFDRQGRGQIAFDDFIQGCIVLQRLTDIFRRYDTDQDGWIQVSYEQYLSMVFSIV

B1: SEC31A (protein, UniProt Q9Z2Q1 1-1249)
chain: MKLKEIDRTAMQAWSPAQNHPIYLATGTSAQQLDATFSTNASLEIFELDLSDPSLDMKSCATFSSSHRYHKLIWGPHKMDSKGDVSGVLIAGGENGNIILYDPSKIIAGDKEVVIAQKDKHTGPVRALDVNIFQTNLVASGANESEIYIWDLNNFATPMTPGAKTQPPEDISCIAWNRQVQHILASASPSGRATVWDLRKNEPIIKVSDHSNRMHCSGLAWHPDVATQMVLASEDDRLPVVQMWDLRFASSPLRVLENHARGILAIAWSMADPELLLSCGKDAKILCSNPNTGEVLYELPTNTQWCFDIQWCPRNPAVLSAASFDGRIRVYSIMGGSIDGLRQKQVDKLSSSFGNLDPFGTGQPLPPLQIPQQTSQHSIVLPLKKPPKWIRRPVGASFSFGGKLVTFENVTGQPQQGAEQPRRQPVFISQVVTEKDFLSRSEQLQHVVQSQGFISYCQKKIDASQTDFEKNVWSFLKVNFEEDSRGKYLELLGYRREDLGEKIALALNRVDGSDVALKDSDRVAQSDGEESPAEEGQLLGERIKEEKQECDFLPSAGGGTFNISVSGDIDGLITRALLTGNFESAVDLCLHDNRMADAIILAIAGGQELLAQTQKKYFAKSQSKITRLITAVVMKNWKEIVESCDLKNWREALAAVLTYAKPDEFSALCDLLGARLESEGDSLLRTQACLCYICAGNVERLVACWTKAQDGSNPLSLQDLIEKVVILRKAVQLTQALDTNTVGALLAEKMSQYANLLAAQGSIAAALAFLPDNTNQPDIVQLRDRLCRAQGRSVPGQESSRSSYEGQPLPKGGPGPLAGHPQVSRVQSQQYYPQVRIAPTVTTWSDRTPTALPSHPPAACPSDTQGGNPPPPGFIMHGNVVPNSPAPLPTSPGHMHSQPPPYPQPQPYQPAQQYSLGTGGSAVYRPQQPVAPPASKRYPNAPYVSPVASYSGQPHMYTAQPASSPTSSSAPLPPPPSSGASFQHGGPGAPPSSSAYALPPGTTGTPPAASELPASQRTGPQNGWNDPPALNRVPKKKKLPENFMPPVPITSPIMNPGGDPQPQGLQQQPSASGPRSSHASFPQPHLAGGQPFHGIQQPLAQTGMPPSFSKPNTEGAPGAPIGNTIQHVQALPTEKITKKPIPDEHLILKTTFEDLIQRCLSSATDPQTKRKLDDASKRLECLYDKLRDQTLSPTIISGLHSIARSIETRNYSEGLTVHTHIVSTSNFSETSAFMPVLKVVLSQASKLGV
B2: SEC13 (protein, UniProt Q5XFW8 1-322)
chain: MVSVINTVDTSHEDMIHDAQMDYYGTRLATCSSDRSVKIFDVRNGGQILIADLRGHEGPVWQVAWAHPMYGNILASCSYDRKVIIWKEENGTWEKTHEHSGHDSSVNSVCWAPHDYGLILACGSSDGAISLLTYTGEGQWEVKKINNAHTIGCNAVSWAPAVVPGSLIDQPSGQKPNYIKKFASGGCDNLIKLWREEEDGQWKEEQKLEAHSDWVRDVAWAPSIGLPTSTIASCSQDGRVFIWTCDDASGNMWSPKLLHKFNDVVWHVSWSITANILAVSGGDNKVTLWKESVDGQWVCISDVNKGQGSVSASITEGQQNEQ
B3: CD63 (protein, UniProt P28648 1-238)
chain: MAVEGGMKCVKFLLYVLLLAFCACAVGLIAIGVAVQVVLKQAITHETTAGSLLPVVIIAVGAFLFLVAFVGCCGACKENYCLMITFAIFLSLIMLVEVAVAIAGYVFRDQVKSEFSKSFQKQMQNYLTDNKTATILDKLQKENKCCGASNYTDWERIPGMAKDRVPDSCCINITVGCGNDFKESTIHTQGCVETIAAWLRKNVLLVAGAALGIAFVEVLGIIFSCCLVKSIRSGYEVM

molecular target: JAG1 (rat (endogenous in rat liver tissue)) (UniProt Q63722); assay: affinity purification with mass spectrometry; JAG1 immunoprecipitated from rat liver tissue lysate (IgG control), SDS-PAGE and silver staining, mass spectrometry of the immunoprecipitated proteins, STRING PPI network

binding, binds:
ALG-2 (from UniProt G3V7W1 1-191)
B1
B2
B3
